Measurements published in patent publication US20260258004A1, “CRYSTALLINE FORMS OF (6S)-5-[4'-FLUORO-2-(TRIFLUOROMETHYL)BIPHENYL-4-YL]-6-METHYL-3,6- DIHYDRO-2H-l,3,4-OXADIAZIN-2-ONE” (Bayer Aktiengesellschaft, priority 2022, published 2026).
Further values from the same series stand in other lists.

Assay: Particle size distribution by laser diffraction (Malvern Panalytical Mastersizer 3000, Fraunhofer)
Type: physicochemical
Procedure: The particle size distribution was measured by laser diffraction using the Malvern Panalytical Mastersizer 3000.
The samples are again taken from example 1.6 (probe 1) and example 1.5 (probe 2), the same as used in example 4.
The sample to be analyzed is dispersed in 1 drop of Tween 80 the sample is processed according to ISO13320.
Laser diffraction is an often-used method for determination the particle size of dispersed solid materials. A widened laser beam illuminates a cuvette which contains part of the particles. By diffraction on the particles a characteristic pattern can be mapped on the detector. The resulting diffraction image is the additive overlaying of diffraction images of all particles.
Besides the mentioned detector two additional detectors are mounted in order to detect diffraction light in forward direction (FA1,9), in wide angle (LA1,2) and in back direction (BS1,2). The turbidity of the sample is measured by an extinction sensor. This is necessary to ensure a low particle concentration which is necessary to avoid wrong results by multiple diffraction of light at several particles.
The cuvette used was a wet unit where the suspension is pumped in a closed circuit with a dispersing unit that ensures a separation of single particles by shear forces.
The measurement range of the Malvern 3000 covers a particle size from 1 mm (2 mm) down to 20 nm
The calculation of the particle size distribution from the diffraction patterns was done on basis of theory of Fraunhofer.
This assumption is valid for particle sizes of 10 to 50 μm and above. For smaller particles the light scattering of the particle itself due to optical transparency must be considered which is done in the Mie-theory (not used for our probes). Precondition of the application of the Mie-theory is the knowledge of the refractive and absorption index of the dispersed solids.
Q3 is the cumulative volume distribution, e.g. D50=Q(50%) indicates 50% of the volume part of the sample is smaller than particle size of 50 μm.
The particle size is expressed as an equivalent diameter used in the method recommended by the Malvern Analysis Program and as described in ISO13320.

C[C@@H]1OC(=O)NN=C1c1ccc(-c2ccc(F)cc2)c(C(F)(F)F)c1 [polymorph C, (6S)-5-[4′-Fluoro-2-(trifluoromethyl)biphenyl-4-yl]-6-methyl-3,6-dihydro-2H-1,3,4-oxadiazin-2-one]
Cumulative volume distribution Q (particle size D 5.92 μm, 300 s US, listed as Porbe2): 4.05%
Cumulative volume distribution Q (particle size D 5.92 μm, without US, listed as Probe 2): 0%
Cumulative volume distribution Q (particle size D 6.72 μm, 300 s US, listed as Porbe2): 4.6%
Cumulative volume distribution Q (particle size D 6.72 μm, without US, listed as Probe 2): 0.06%
Cumulative volume distribution Q (particle size D 7.64 μm, 300 s US, listed as Porbe2): 5.22%
Cumulative volume distribution Q (particle size D 7.64 μm, without US, listed as Probe 2): 0.13%
Cumulative volume distribution Q (particle size D 8.68 μm, 300 s US, listed as Porbe2): 5.91%
Cumulative volume distribution Q (particle size D 8.68 μm, without US, listed as Probe 2): 0.2%
Cumulative volume distribution Q (particle size D 9.86 μm, 300 s US, listed as Porbe2): 6.7%
Cumulative volume distribution Q (particle size D 9.86 μm, without US, listed as Probe 2): 0.27%
Cumulative volume distribution Q (particle size D 11.2 μm, 300 s US, listed as Porbe2): 7.61%
Cumulative volume distribution Q (particle size D 11.2 μm, without US, listed as Probe 2): 0.35%
Cumulative volume distribution Q (particle size D 12.7 μm, 300 s US, listed as Porbe2): 8.67%
Cumulative volume distribution Q (particle size D 12.7 μm, without US, listed as Probe 2): 0.43%
Cumulative volume distribution Q (particle size D 14.5 μm, 300 s US, listed as Porbe2): 9.93%
Cumulative volume distribution Q (particle size D 14.5 μm, without US, listed as Probe 2): 0.52%
Cumulative volume distribution Q (particle size D 16.4 μm, 300 s US, listed as Porbe2): 11.44%
Cumulative volume distribution Q (particle size D 16.4 μm, without US, listed as Probe 2): 0.66%
Cumulative volume distribution Q (particle size D 18.7 μm, 300 s US, listed as Porbe2): 13.29%
Cumulative volume distribution Q (particle size D 18.7 μm, without US, listed as Probe 2): 0.85%
Cumulative volume distribution Q (particle size D 21.2 μm, 300 s US, listed as Porbe2): 15.54%
Cumulative volume distribution Q (particle size D 21.2 μm, without US, listed as Probe 2): 1.12%
Cumulative volume distribution Q (particle size D 24.1 μm, 300 s US, listed as Porbe2): 18.26%
Cumulative volume distribution Q (particle size D 24.1 μm, without US, listed as Probe 2): 1.51%
Cumulative volume distribution Q (particle size D 27.4 μm, 300 s US, listed as Porbe2): 21.51%
Cumulative volume distribution Q (particle size D 27.4 μm, without US, listed as Probe 2): 2.02%
Cumulative volume distribution Q (particle size D 31.1 μm, 300 s US, listed as Porbe2): 25.33%
Cumulative volume distribution Q (particle size D 31.1 μm, without US, listed as Probe 2): 2.66%
Cumulative volume distribution Q (particle size D 35.3 μm, 300 s US, listed as Porbe2): 29.7%
Cumulative volume distribution Q (particle size D 35.3 μm, without US, listed as Probe 2): 3.42%
Cumulative volume distribution Q (particle size D 40.1 μm, 300 s US, listed as Porbe2): 34.58%
Cumulative volume distribution Q (particle size D 40.1 μm, without US, listed as Probe 2): 4.3%
Cumulative volume distribution Q (particle size D 45.6 μm, 300 s US, listed as Porbe2): 39.87%
Cumulative volume distribution Q (particle size D 45.6 μm, without US, listed as Probe 2): 5.3%
Cumulative volume distribution Q (particle size D 51.8 μm, 300 s US, listed as Porbe2): 45.48%
Cumulative volume distribution Q (particle size D 51.8 μm, without US, listed as Probe 2): 6.44%
Cumulative volume distribution Q (particle size D 58.9 μm, 300 s US, listed as Porbe2): 51.26%
Cumulative volume distribution Q (particle size D 58.9 μm, without US, listed as Probe 2): 7.78%
Cumulative volume distribution Q (particle size D 66.9 μm, 300 s US, listed as Porbe2): 57.08%
Cumulative volume distribution Q (particle size D 66.9 μm, without US, listed as Probe 2): 9.44%
Cumulative volume distribution Q (particle size D 76 μm, 300 s US, listed as Porbe2): 62.81%
Cumulative volume distribution Q (particle size D 76 μm, without US, listed as Probe 2): 11.6%
Cumulative volume distribution Q (particle size D 86.4 μm, 300 s US, listed as Porbe2): 68.33%
Cumulative volume distribution Q (particle size D 86.4 μm, without US, listed as Probe 2): 14.47%
Cumulative volume distribution Q (particle size D 98.1 μm, 300 s US, listed as Porbe2): 73.52%
Cumulative volume distribution Q (particle size D 98.1 μm, without US, listed as Probe 2): 18.26%
Cumulative volume distribution Q (particle size D 111 μm, 300 s US, listed as Porbe2): 78.28%
Cumulative volume distribution Q (particle size D 111 μm, without US, listed as Probe 2): 23.13%
Cumulative volume distribution Q (particle size D 127 μm, 300 s US, listed as Porbe2): 82.52%
Cumulative volume distribution Q (particle size D 127 μm, without US, listed as Probe 2): 29.12%
Cumulative volume distribution Q (particle size D 144 μm, 300 s US, listed as Porbe2): 86.16%
Cumulative volume distribution Q (particle size D 144 μm, without US, listed as Probe 2): 36.15%
Cumulative volume distribution Q (particle size D 163 μm, 300 s US, listed as Porbe2): 89.2%
Cumulative volume distribution Q (particle size D 163 μm, without US, listed as Probe 2): 43.99%
Cumulative volume distribution Q (particle size D 186 μm, 300 s US, listed as Porbe2): 91.66%
Cumulative volume distribution Q (particle size D 186 μm, without US, listed as Probe 2): 52.3%
Cumulative volume distribution Q (particle size D 211 μm, 300 s US, listed as Porbe2): 93.62%
Cumulative volume distribution Q (particle size D 211 μm, without US, listed as Probe 2): 60.66%
Cumulative volume distribution Q (particle size D 240 μm, 300 s US, listed as Porbe2): 95.18%
Cumulative volume distribution Q (particle size D 240 μm, without US, listed as Probe 2): 68.67%
Cumulative volume distribution Q (particle size D 272 μm, 300 s US, listed as Porbe2): 96.46%
Cumulative volume distribution Q (particle size D 272 μm, without US, listed as Probe 2): 75.96%
Cumulative volume distribution Q (particle size D 310 μm, 300 s US, listed as Porbe2): 97.5%
Cumulative volume distribution Q (particle size D 310 μm, without US, listed as Probe 2): 82.27%
Cumulative volume distribution Q (particle size D 352 μm, 300 s US, listed as Porbe2): 98.37%
Cumulative volume distribution Q (particle size D 352 μm, without US, listed as Probe 2): 87.49%
Cumulative volume distribution Q (particle size D 400 μm, 300 s US, listed as Porbe2): 99.05%
Cumulative volume distribution Q (particle size D 400 μm, without US, listed as Probe 2): 91.58%
Cumulative volume distribution Q (particle size D 454 μm, 300 s US, listed as Porbe2): 99.55%
Cumulative volume distribution Q (particle size D 454 μm, without US, listed as Probe 2): 94.65%
Cumulative volume distribution Q (particle size D 516 μm, 300 s US, listed as Porbe2): 99.86%
Cumulative volume distribution Q (particle size D 516 μm, without US, listed as Probe 2): 96.82%
Cumulative volume distribution Q (particle size D 586 μm, 300 s US): 100%
Cumulative volume distribution Q (particle size D 586 μm, without US, listed as Probe 2): 98.26%
Cumulative volume distribution Q (particle size D 666 μm, 300 s US): 100%
Cumulative volume distribution Q (particle size D 666 μm, without US, listed as Probe 2): 99.16%
